Source: the supplement of paper PMC11732987, “Enantioselective OTUD7B fragment discovery through chemoproteomics screening and high-throughput optimisation” (Communications Chemistry, 2025)
The other results are listed elsewhere or left out. The data scatter; read single values as rough.

The chains behind the UniProt entries cited, without tags or fusion partners. Where a name states a change or a piece, a line headed by the entry shows the natural chain unless it says otherwise. Residues count along the entry.
UniProt P49137, whole entry, looked up: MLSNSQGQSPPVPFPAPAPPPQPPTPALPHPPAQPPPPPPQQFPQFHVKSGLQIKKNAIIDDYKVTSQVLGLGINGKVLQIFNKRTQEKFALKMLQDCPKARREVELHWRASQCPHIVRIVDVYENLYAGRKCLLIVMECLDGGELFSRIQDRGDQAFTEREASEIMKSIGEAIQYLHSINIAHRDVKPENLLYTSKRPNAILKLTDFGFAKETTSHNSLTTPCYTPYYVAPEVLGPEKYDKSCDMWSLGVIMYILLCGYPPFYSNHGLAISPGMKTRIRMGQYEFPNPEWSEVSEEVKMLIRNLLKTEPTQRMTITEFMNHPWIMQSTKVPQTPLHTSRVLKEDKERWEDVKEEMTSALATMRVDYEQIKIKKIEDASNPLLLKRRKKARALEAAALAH
UniProt P49137, 213-239: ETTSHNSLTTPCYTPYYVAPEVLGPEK
UniProt Q16644: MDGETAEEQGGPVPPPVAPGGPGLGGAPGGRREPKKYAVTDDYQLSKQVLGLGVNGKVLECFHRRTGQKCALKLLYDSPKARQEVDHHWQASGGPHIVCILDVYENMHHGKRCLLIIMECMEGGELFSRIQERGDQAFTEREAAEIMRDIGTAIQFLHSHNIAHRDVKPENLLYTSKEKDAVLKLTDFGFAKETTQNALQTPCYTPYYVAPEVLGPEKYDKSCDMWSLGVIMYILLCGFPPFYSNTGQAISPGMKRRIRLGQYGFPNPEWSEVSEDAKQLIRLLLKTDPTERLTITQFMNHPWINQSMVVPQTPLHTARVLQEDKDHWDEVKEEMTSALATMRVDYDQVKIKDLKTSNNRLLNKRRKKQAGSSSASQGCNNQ
UniProt Q9ULC4: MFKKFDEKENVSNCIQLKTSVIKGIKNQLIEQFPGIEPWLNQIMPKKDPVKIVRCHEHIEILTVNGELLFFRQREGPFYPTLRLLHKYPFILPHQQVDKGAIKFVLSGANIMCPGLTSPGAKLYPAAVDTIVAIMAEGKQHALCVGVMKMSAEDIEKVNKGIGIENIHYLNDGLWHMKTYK
UniProt Q9NS73: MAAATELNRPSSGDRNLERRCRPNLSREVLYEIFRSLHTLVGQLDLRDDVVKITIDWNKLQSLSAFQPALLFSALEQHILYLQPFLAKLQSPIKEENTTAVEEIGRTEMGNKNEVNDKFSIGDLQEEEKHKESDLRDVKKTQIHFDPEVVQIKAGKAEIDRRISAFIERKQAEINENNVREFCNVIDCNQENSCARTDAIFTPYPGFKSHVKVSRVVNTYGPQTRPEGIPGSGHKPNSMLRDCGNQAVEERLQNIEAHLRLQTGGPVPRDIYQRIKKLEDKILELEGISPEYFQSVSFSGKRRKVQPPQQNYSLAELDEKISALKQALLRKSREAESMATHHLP
UniProt O95372: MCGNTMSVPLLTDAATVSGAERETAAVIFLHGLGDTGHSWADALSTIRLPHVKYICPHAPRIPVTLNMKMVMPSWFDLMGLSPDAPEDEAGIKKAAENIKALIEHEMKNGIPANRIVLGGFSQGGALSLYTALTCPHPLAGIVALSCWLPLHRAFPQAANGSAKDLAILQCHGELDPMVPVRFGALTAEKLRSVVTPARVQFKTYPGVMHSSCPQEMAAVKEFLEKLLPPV
UniProt Q9UDY8, 311-341: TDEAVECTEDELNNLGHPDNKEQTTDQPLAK
UniProt Q6ZN16: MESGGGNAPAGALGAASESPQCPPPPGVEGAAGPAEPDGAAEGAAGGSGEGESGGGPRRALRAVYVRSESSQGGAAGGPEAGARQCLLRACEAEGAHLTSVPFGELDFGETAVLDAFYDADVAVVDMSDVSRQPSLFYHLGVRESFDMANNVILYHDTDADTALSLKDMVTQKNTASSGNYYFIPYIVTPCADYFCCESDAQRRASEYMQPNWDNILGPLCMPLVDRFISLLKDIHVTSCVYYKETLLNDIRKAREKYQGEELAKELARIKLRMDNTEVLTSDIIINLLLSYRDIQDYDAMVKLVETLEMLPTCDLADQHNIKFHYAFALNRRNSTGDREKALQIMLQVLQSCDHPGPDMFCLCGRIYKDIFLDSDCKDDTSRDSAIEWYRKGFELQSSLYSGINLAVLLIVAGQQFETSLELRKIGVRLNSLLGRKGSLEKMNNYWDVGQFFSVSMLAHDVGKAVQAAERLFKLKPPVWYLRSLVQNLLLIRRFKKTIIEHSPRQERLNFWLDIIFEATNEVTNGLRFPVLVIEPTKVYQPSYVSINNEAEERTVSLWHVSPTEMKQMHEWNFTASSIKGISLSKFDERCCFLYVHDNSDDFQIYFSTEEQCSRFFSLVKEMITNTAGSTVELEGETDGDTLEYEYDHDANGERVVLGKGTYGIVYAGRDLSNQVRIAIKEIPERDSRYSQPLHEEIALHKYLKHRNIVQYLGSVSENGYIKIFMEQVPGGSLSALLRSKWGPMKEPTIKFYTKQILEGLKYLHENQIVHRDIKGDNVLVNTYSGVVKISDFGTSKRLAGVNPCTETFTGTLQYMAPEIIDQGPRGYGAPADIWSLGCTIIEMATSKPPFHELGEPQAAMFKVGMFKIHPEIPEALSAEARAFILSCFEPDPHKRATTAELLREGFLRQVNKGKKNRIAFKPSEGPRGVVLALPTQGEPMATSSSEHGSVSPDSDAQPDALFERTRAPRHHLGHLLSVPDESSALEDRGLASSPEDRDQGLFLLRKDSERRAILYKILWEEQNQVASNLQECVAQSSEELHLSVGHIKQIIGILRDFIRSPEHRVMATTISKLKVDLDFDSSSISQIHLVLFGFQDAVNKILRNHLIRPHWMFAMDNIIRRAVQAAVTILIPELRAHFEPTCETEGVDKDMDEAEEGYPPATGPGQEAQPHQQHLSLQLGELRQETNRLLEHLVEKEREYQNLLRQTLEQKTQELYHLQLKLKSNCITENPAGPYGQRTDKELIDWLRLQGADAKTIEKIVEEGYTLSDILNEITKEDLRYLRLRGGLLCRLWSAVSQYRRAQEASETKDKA
UniProt Q9Y4F3: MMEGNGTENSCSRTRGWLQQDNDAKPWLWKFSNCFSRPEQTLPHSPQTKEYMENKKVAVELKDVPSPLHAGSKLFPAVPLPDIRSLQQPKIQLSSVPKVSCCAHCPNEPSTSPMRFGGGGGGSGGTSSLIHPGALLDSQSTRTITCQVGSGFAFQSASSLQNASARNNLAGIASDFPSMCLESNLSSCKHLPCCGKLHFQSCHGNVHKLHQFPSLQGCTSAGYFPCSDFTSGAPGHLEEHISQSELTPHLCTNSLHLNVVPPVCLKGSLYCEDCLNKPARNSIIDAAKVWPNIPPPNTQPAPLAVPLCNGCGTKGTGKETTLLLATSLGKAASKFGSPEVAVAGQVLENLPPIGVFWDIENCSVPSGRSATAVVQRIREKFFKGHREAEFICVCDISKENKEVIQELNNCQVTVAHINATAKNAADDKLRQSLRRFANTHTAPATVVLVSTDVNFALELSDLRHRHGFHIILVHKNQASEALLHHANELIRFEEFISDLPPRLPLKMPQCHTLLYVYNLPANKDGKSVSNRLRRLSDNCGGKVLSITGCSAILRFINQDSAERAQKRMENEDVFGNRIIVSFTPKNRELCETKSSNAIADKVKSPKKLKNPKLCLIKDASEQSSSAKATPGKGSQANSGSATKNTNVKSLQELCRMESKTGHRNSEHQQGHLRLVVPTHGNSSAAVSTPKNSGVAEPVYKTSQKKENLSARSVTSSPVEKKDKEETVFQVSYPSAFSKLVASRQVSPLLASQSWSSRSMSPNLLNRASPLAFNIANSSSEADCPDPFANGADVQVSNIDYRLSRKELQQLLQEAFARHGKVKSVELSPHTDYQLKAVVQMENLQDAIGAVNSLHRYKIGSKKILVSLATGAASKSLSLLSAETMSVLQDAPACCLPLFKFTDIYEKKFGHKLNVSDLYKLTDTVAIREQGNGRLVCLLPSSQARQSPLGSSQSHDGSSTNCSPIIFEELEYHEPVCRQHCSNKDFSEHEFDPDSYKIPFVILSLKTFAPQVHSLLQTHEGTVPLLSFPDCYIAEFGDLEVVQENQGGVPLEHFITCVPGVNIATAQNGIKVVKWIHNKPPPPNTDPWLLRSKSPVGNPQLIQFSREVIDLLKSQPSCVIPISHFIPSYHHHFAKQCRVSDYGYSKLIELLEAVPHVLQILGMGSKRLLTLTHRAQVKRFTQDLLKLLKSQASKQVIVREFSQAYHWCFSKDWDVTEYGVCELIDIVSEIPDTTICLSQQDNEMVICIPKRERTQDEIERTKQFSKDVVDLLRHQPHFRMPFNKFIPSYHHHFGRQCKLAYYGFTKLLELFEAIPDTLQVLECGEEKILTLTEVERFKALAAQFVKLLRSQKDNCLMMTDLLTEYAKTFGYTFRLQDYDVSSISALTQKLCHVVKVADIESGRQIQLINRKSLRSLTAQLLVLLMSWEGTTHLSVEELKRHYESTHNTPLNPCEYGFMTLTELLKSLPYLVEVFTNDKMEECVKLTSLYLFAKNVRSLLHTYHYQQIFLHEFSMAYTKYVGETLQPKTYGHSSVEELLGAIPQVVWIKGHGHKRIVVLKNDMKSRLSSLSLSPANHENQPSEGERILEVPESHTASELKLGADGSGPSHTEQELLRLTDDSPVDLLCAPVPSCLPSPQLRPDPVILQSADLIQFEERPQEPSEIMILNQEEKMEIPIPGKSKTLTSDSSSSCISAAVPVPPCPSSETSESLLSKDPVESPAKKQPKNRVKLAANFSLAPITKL
UniProt Q9NQ29: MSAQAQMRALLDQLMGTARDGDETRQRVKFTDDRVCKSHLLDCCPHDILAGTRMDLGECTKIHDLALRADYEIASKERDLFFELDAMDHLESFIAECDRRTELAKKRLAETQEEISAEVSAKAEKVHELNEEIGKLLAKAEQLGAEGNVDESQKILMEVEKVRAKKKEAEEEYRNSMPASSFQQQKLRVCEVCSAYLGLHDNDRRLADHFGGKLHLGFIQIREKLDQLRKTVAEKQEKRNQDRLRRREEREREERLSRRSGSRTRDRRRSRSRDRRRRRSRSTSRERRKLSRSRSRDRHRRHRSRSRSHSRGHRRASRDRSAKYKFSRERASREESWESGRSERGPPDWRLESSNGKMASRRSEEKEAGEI
UniProt Q9Y2E5: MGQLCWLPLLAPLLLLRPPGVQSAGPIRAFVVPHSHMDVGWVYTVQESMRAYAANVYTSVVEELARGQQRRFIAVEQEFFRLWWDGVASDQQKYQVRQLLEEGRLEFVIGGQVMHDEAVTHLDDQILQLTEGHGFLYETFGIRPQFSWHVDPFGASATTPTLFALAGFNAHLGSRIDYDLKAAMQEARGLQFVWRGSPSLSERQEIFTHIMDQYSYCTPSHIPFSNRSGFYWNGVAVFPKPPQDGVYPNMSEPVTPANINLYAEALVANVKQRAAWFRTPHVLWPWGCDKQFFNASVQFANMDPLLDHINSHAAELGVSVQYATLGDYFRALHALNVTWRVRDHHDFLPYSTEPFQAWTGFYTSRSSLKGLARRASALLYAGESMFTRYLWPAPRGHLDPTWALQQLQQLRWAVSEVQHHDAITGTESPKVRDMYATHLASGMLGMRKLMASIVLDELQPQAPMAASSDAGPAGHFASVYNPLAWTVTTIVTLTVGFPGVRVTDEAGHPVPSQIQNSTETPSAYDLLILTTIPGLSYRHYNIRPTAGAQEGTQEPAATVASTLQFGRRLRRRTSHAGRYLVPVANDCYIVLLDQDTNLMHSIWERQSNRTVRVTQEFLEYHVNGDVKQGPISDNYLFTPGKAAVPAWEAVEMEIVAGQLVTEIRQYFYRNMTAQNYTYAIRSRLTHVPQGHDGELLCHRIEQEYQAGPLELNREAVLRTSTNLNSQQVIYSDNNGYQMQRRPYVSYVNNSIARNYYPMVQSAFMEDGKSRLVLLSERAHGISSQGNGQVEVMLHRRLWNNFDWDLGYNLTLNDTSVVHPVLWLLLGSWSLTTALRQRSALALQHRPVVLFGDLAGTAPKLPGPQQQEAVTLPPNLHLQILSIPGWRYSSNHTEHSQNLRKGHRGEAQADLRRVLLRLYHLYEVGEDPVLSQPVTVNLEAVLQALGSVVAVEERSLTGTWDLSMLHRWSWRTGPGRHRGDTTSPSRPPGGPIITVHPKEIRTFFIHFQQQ
UniProt P07948: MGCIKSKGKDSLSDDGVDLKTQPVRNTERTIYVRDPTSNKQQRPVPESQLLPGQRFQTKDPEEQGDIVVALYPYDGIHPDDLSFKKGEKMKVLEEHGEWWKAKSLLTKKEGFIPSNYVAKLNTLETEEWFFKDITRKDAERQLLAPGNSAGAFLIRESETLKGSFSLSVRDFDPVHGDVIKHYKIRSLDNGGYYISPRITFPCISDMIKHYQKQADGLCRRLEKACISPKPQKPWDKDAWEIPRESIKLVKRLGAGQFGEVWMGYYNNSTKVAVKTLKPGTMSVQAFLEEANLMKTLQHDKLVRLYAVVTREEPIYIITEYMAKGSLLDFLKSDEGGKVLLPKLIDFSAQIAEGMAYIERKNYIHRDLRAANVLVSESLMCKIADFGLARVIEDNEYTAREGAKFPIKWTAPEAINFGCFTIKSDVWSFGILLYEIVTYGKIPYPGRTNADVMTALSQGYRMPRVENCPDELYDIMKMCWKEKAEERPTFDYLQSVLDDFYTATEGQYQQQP

compound: ClCC(=O)N[C@@H]1CCCc2ccccc12; experiment: log2 mean competition ratio of IA-DTB cysteine labelling (DMSO/compound) (log2 ratio); higher = stronger cysteine engagement by compound; conditions: 50 µM; treatment time: 4 h; cell line lysate: HEK293T
Procedure: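 IA-DTB competitive cysteine chemoproteomics in HEK293T RIPA lysate. Lysates were treated with compound 29 or 30 at 50 or 200 µM for 4 h, then IA-DTB (500 µM, 1 h), trypsin-digested, NeutrAvidin-enriched and analysed by diaPASEF. Competition ratio = intensity DMSO / intensity compound (n=4 treated, n=64 DMSO); binding: mean log2 CR ≥ 1 and p ≤ 0.05 plus QC filters. Target is the cysteine site.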

Target	log2 mean competition ratio
LYAR C51 (UniProt Q9NX58)	-0.166
MACF1 C6646	-0.161
LRRFIP1 C750 (UniProt Q32MZ4)	0.0939
MAP3K4 C1484 (UniProt Q9Y6R4)	-0.0031
MAPKAPK2 C98 (UniProt P49137)	-0.127
MCAT C361 (UniProt Q8IVS2)	0.254
MAPKAPK2 C224 (UniProt P49137)	-0.13
MAPKAPK3 C379 (UniProt Q16644)	-0.253
LTN1 C981 (UniProt O94822)	0.141
MCTS1 C14 (UniProt Q9ULC4)	-0.185
MBIP C243 (UniProt Q9NS73)	-0.12
MAD1L1 C134 (UniProt Q9Y6D9)	-0.437
MAP3K4 C61 (UniProt Q9Y6R4)	-0.278
MAF C305	0.268
LYPLA2 C56 (UniProt O95372)	0.338
MAP3K21 C281	0.252
MALT1 C317 (UniProt Q9UDY8)	-0.469
MAP3K15 C1227 (UniProt Q6ZN16)	0.372
MAPK8 C245 (UniProt P45983)	0.0945
MARK4 C459 (UniProt Q96L34)	-0.0413
LSM7 C76 (UniProt Q9UK45)	0.323
MARF1 C654 (UniProt Q9Y4F3)	-0.336
LUC7L C59 (UniProt Q9NQ29)	-0.164
MAN2B2 C288 (UniProt Q9Y2E5)	-0.151
MARK4 C49 (UniProt Q96L34)	-0.0451
MCM7 C378 (UniProt P33993)	-0.123
LYN C203 (UniProt P07948)	0.245
MCM4 C509 (UniProt P33991)	-0.133
